These are yes or no findings as the source states them, for the method shown. Binding can be weak; no strength is given. Where a sequence is shown, tags or fusion partners need not be part of it. For part of these data: In cells and extracts the contact can be indirect.
B1: GF14a (GAL4-AD fusion, yeast two-hybrid prey) (protein, UniProt Q84J55 1-264)
chain: MAAAAGGGTREEMVYMAKLAEQAERYEEMVEFMEKVVTAAAAGGGGELTVEERNLLSVAYKNVIGARRASWRIVSSIEQKEEGRGAAGHAAAARSYRARVEAELSNICAGILRLLDERLVPAAAAVDAKVFYLKMKGDYHRYLAEFKTGAERKDAADATLAAYQAAQDIAMKELSPTHPIRLGLALNFSVFYYEILNSPDRACTLAKQAFDEAISELDTLGEESYKDSTLIMQLLRDNLTLWTSDMQDDGGDEMRDATKPEDEH
B2: GF14c (GAL4-AD fusion, yeast two-hybrid prey) (protein, UniProt Q6ZKC0 1-256)
chain: MSREENVYMAKLAEQAERYEEMVEYMEKVAKTVDVEELTVEERNLLSVAYKNVIGARRASWRIVSSIEQKEEGRGNEEHVTLIKEYRGKIEAELSKICDGILKLLDSHLVPSSTAAESKVFYLKMKGDYHRYLAEFKTGAERKEAAESTMVAYKAAQDIALADLAPTHPIRLGLALNFSVFYYEILNSPDKACNLAKQAFDEAISELDTLGEESYKDSTLIMQLLRDNLTLWTSDLTEDGGDEVKEASKGDACEGQ
B3: GF14d (GAL4-AD fusion, yeast two-hybrid prey) (protein, UniProt Q2R2W2 1-265)
chain: MSPAEPTREESVYKAKLAEQAERYEEMVEYMERVARAAGGASGGEELTVEERNLLSVAYKNVIGARRASWRIISSIEQKEEGRGNDAHAATIRSYRGKIEAELARICDGILALLDSHLVPSAGAAESKVFYLKMKGDYHRYLAEFKSGDERKQAAESTMNAYKAAQDIALADLAPTHPIRLGLALNFSVFYYEILNSPDRACNLAKQAFDEAISELDSLGEESYKDSTLIMQLLRDNLTLWTSDANDDGGDEIKEAAAPKEPGDQ
B4: GF14f (GAL4-AD fusion, yeast two-hybrid prey) (protein, UniProt Q06967 1-260)
chain: MSPAEASREENVYMAKLAEQAERYEEMVEFMEKVAKTTDVGELTVEERNLLSVAYKNVIGARRASWRIISSIEQKEESRGNEAYVASIKEYRSRIETELSKICDGILKLLDSHLVPSATAAESKVFYLKMKGDYHRYLAEFKSGAERKEAAENTLVAYKSAQDIALADLPTTHPIRLGLALNFSVFYYEILNSPDRACNLAKQAFDDAIAELDTLGEESYKDSTLIMQLLRDNLTLWTSDNAEDGGDEIKEAAKPEGEGH
B5: GF14h (GAL4-AD fusion, yeast two-hybrid prey) (protein, UniProt Q2R1D5 1-230)
chain: MKEREKVVRLAKLAEQAERYDDMVEFMKTLARMDVDMSAEERLLFSVGFKKTIGARRASWRILESLEQKVTAGDQPGVTINGYKKKVEDELRAVCNEVLSIIAIHCLPLANSGENVVFFYKMKGDYYRYLAEFSTGTEKKAATDQSLMAYQAWPCAQLFSLLEIMNSPERASQVAKQALDEATAEINSAGVEGYKDSMLMMQLLKENLALWTSELTGGETSKDDDVVMEG
B6: GF14g (GAL4-AD fusion, yeast two-hybrid prey) (protein, UniProt Q5QNB8 1-257)
chain: MAPSDDLVYMAKLAEQAERYDEMVEAMNSVAKLDEGLTKEERNLLSVGYKNLIGAKRAAMRIIGSIELKEETKGKESHVRQTAEYRRKVEAEMDKICCDVINIIDKYLIPHSSGAESSVFYYKMKGDYYRYLAEFKTGTEKIEVSELSLNAYETASKTAQTDLTPTDPIRLGLALNISVFYCEIMNSPDKACQLAKNAFDEAVAELPSLSEENYKDSTLIMQLLRDNLALWNSDMADDADDIRERTDTTGAKGDPAA
B7: GF14c (cLUC fusion, LCI assay) (protein, UniProt Q6ZKC0 1-256)
chain: MSREENVYMAKLAEQAERYEEMVEYMEKVAKTVDVEELTVEERNLLSVAYKNVIGARRASWRIVSSIEQKEEGRGNEEHVTLIKEYRGKIEAELSKICDGILKLLDSHLVPSSTAAESKVFYLKMKGDYHRYLAEFKTGAERKEAAESTMVAYKAAQDIALADLAPTHPIRLGLALNFSVFYYEILNSPDKACNLAKQAFDEAISELDTLGEESYKDSTLIMQLLRDNLTLWTSDLTEDGGDEVKEASKGDACEGQ
B8: GF14d (cLUC fusion, LCI assay) (protein, UniProt Q2R2W2 1-265)
chain: MSPAEPTREESVYKAKLAEQAERYEEMVEYMERVARAAGGASGGEELTVEERNLLSVAYKNVIGARRASWRIISSIEQKEEGRGNDAHAATIRSYRGKIEAELARICDGILALLDSHLVPSAGAAESKVFYLKMKGDYHRYLAEFKSGDERKQAAESTMNAYKAAQDIALADLAPTHPIRLGLALNFSVFYYEILNSPDRACNLAKQAFDEAISELDSLGEESYKDSTLIMQLLRDNLTLWTSDANDDGGDEIKEAAAPKEPGDQ
B9: GF14f (cLUC fusion, LCI assay) (protein, UniProt Q06967 1-260)
chain: MSPAEASREENVYMAKLAEQAERYEEMVEFMEKVAKTTDVGELTVEERNLLSVAYKNVIGARRASWRIISSIEQKEESRGNEAYVASIKEYRSRIETELSKICDGILKLLDSHLVPSATAAESKVFYLKMKGDYHRYLAEFKSGAERKEAAENTLVAYKSAQDIALADLPTTHPIRLGLALNFSVFYYEILNSPDRACNLAKQAFDDAIAELDTLGEESYKDSTLIMQLLRDNLTLWTSDNAEDGGDEIKEAAKPEGEGH
B10: GF14h (cLUC fusion, LCI assay) (protein, UniProt Q2R1D5 1-230)
chain: MKEREKVVRLAKLAEQAERYDDMVEFMKTLARMDVDMSAEERLLFSVGFKKTIGARRASWRILESLEQKVTAGDQPGVTINGYKKKVEDELRAVCNEVLSIIAIHCLPLANSGENVVFFYKMKGDYYRYLAEFSTGTEKKAATDQSLMAYQAWPCAQLFSLLEIMNSPERASQVAKQALDEATAEINSAGVEGYKDSMLMMQLLKENLALWTSELTGGETSKDDDVVMEG
B11: GF14a (cLUC fusion, LCI assay) (protein, UniProt Q84J55 1-264)
chain: MAAAAGGGTREEMVYMAKLAEQAERYEEMVEFMEKVVTAAAAGGGGELTVEERNLLSVAYKNVIGARRASWRIVSSIEQKEEGRGAAGHAAAARSYRARVEAELSNICAGILRLLDERLVPAAAAVDAKVFYLKMKGDYHRYLAEFKTGAERKDAADATLAAYQAAQDIAMKELSPTHPIRLGLALNFSVFYYEILNSPDRACTLAKQAFDEAISELDTLGEESYKDSTLIMQLLRDNLTLWTSDMQDDGGDEMRDATKPEDEH
B12: GF14g (cLUC fusion, LCI assay) (protein, UniProt Q5QNB8 1-257)
chain: MAPSDDLVYMAKLAEQAERYDEMVEAMNSVAKLDEGLTKEERNLLSVGYKNLIGAKRAAMRIIGSIELKEETKGKESHVRQTAEYRRKVEAEMDKICCDVINIIDKYLIPHSSGAESSVFYYKMKGDYYRYLAEFKTGTEKIEVSELSLNAYETASKTAQTDLTPTDPIRLGLALNISVFYCEIMNSPDKACQLAKNAFDEAVAELPSLSEENYKDSTLIMQLLRDNLALWNSDMADDADDIRERTDTTGAKGDPAA

The binders below were run against OsFTL4 (GAL4-BD fusion, yeast two-hybrid bait) (rice (Oryza sativa L.)) (assay: two-hybrid; GAL4-BD fusion as bait, GAL4-AD fusion as prey, co-transformed into Y2HGold yeast; growth on SD/-Trp/-Leu/-His/-Ade (QDO); 3-AT 25 mM (Fig. 5a)).

**Q.** How did the binding turn out when B1 was run?
**A.** binds

**Q.** Which binding does the source give for B2 here?
**A.** binds

**Q.** How did the binding turn out when B3 was run?
**A.** binds

**Q.** How did the binding turn out when B4 was run?
**A.** binds

**Q.** How did the binding turn out when B5 was run?
**A.** binds

**Q.** B6 was tested. Which binding did it give?
**A.** no binding

What follows are binders tested against OsFTL4 (nLUC fusion, LCI assay) (rice (Oryza sativa L.)) (assay: split reporter; luciferase complementation imaging (LCI): nLUC and cLUC fusions co-expressed in N. benthamiana leaves by agroinfiltration; luminescence imaged).

**Q.** Which binding does the source give for B7 here?
**A.** binds

**Q.** B8 was tested. Which binding did it give?
**A.** binds

**Q.** For B9, which binding is on record?
**A.** binds

**Q.** With B10 as the binder, how does the binding read?
**A.** binds

**Q.** B11 was tested. Which binding did it give?
**A.** binds

**Q.** How did the binding turn out when B12 was run?
**A.** no binding

Source: publication PMC9448835
